# Measurements reported in paper PMC11277421, “Advancing Cardiovascular Drug Screening Using Human Pluripotent Stem Cell-Derived Cardiomyocytes” (International Journal of Molecular Sciences, 2024).
# Test system: iPSC-CMs
# Assay: Cardiotoxicity test: spontaneous calcium oscillations (FLIPR, EarlyTox dye)
# Conditions: concentration-dependent
# Procedure: Spontaneous calcium oscillations in iPSC-CMs were measured using the FLIPR system in the absence or presence of test compounds. […] This approach allowed the evaluation of proarrhythmic effects of drug candidates based on calcium dynamics occurring within the iPSC-CMs.
# Figure 4 Utilization of hPSC-CMs as a platform for high-throughput testing of the cardiotoxicity and effectiveness of drugs. Spontaneous calcium oscillations in iPSC-CMs were measured using the FLIPR system in the absence or presence of test compounds. (a,b) Cardiotoxicity test. […] (b) Testing of the compounds known for their adverse effects in humans. […] (c,d) Efficacy test. […]
# Spontaneous calcium transients in contracting CMs were monitored using the FLIPR Tetra® High Throughput Cellular Screening System (Molecular Devices). hPSC-CMs were plated on the Matrigel-coated wells (8 × 10^4 cells per well) of a 96-well plate. Confluency was monitored after 2 days, and the strong synchronous contractions of cells were confirmed prior to the cardiac calcium oscillation assay. […] Calcium oscillations were measured at 20, 40, and 60 min after treatment. The acquired data were analyzed for beat frequency and peak width at 10% amplitude using ScreenWorks Peak Pro software version 2.0 (Molecular Devices).
compound,measurement,value
Cc1cccc(CCN2CCC(C(=O)c3ccc(NS(C)(=O)=O)cc3)CC2)n1 [E-4031],effect on beating rate,decrease in the beating rate
